Assay results from the supplement of paper PMC10849652.
This is one part of the list.

The chains behind the UniProt entries cited, without tags or fusion partners. Where a name states a change or a piece, a line headed by the entry shows the natural chain unless it says otherwise.
UniProt Q96PY6: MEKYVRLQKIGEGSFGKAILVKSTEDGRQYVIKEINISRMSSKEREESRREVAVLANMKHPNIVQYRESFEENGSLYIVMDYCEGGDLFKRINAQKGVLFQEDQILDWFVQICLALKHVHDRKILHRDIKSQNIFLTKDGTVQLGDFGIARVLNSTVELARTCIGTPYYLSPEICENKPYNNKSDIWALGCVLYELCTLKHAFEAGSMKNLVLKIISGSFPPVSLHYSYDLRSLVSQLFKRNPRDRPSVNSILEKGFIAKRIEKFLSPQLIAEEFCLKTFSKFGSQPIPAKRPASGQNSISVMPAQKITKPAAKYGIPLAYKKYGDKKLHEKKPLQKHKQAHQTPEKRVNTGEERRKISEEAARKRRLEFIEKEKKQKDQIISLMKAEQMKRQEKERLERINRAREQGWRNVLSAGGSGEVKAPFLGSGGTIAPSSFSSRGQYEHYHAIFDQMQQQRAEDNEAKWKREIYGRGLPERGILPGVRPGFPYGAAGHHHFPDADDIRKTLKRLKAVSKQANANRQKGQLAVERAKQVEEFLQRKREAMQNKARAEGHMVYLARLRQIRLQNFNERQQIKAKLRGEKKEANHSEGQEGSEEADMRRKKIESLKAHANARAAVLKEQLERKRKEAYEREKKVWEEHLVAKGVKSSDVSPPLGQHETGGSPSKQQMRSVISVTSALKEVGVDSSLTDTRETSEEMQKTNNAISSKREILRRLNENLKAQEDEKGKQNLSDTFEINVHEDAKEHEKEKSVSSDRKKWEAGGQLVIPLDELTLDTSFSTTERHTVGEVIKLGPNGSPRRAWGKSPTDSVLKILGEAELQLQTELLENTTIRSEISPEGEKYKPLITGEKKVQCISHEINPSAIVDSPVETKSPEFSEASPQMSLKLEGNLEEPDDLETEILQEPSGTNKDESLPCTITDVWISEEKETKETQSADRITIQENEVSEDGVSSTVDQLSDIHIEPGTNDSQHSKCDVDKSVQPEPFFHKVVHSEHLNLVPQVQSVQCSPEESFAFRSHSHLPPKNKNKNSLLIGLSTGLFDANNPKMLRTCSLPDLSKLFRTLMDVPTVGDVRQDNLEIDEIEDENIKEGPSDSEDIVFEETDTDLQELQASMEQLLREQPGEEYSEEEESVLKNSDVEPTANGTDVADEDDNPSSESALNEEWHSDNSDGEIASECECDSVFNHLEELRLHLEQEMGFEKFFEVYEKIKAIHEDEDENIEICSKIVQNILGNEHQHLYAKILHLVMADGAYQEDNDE
UniProt Q96IV0: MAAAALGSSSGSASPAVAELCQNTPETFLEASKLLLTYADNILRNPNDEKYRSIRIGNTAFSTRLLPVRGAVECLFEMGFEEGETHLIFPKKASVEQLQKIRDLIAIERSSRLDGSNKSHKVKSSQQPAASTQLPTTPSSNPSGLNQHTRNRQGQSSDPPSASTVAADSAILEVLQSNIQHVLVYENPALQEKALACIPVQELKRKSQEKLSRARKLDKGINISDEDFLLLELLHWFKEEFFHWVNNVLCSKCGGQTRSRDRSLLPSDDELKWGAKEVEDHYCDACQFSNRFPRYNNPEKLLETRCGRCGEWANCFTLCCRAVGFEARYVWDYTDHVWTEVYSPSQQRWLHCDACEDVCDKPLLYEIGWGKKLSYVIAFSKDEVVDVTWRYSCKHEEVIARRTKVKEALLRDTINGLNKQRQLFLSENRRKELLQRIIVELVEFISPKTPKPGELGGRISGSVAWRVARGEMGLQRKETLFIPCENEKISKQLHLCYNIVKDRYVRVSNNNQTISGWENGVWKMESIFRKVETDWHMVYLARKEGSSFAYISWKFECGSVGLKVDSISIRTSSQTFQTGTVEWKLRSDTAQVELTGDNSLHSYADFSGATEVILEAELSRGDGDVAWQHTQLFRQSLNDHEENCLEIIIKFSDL
UniProt O43676, whole entry, looked up: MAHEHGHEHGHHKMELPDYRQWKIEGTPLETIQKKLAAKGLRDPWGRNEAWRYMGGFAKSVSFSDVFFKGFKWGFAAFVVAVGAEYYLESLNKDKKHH
UniProt Q330K2: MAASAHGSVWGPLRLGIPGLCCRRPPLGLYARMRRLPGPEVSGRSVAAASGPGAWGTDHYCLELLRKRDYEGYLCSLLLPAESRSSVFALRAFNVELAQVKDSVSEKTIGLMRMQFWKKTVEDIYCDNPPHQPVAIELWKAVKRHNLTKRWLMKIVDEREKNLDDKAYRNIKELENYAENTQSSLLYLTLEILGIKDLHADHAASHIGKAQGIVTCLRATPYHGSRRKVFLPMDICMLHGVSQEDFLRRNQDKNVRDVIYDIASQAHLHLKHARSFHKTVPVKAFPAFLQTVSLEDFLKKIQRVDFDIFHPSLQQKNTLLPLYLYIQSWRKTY
UniProt O43677, whole entry, looked up: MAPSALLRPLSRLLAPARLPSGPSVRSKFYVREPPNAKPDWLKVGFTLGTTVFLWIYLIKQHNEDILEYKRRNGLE
UniProt Q8NEJ9: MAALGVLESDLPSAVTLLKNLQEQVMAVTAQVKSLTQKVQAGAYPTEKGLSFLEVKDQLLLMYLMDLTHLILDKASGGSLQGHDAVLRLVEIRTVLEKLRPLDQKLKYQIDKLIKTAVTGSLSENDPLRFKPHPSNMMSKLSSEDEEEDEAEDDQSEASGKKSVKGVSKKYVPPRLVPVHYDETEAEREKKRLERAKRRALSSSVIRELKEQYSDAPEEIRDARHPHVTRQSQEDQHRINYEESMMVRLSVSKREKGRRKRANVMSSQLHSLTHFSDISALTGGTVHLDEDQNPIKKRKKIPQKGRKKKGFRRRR
UniProt Q6NW34: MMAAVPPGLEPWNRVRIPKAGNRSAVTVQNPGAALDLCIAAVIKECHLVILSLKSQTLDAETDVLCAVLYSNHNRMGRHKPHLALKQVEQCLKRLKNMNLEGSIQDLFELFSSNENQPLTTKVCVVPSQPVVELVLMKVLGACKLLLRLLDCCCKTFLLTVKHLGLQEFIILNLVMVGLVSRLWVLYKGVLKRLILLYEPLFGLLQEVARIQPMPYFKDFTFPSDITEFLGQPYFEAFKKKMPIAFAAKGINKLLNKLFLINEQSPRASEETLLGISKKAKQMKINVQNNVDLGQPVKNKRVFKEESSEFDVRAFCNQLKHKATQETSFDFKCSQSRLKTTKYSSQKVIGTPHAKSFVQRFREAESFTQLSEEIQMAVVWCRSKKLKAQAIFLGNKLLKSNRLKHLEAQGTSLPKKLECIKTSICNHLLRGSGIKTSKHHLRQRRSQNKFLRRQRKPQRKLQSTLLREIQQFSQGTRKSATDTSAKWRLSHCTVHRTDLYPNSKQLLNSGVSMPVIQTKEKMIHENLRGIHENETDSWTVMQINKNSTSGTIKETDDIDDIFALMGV
UniProt Q16621: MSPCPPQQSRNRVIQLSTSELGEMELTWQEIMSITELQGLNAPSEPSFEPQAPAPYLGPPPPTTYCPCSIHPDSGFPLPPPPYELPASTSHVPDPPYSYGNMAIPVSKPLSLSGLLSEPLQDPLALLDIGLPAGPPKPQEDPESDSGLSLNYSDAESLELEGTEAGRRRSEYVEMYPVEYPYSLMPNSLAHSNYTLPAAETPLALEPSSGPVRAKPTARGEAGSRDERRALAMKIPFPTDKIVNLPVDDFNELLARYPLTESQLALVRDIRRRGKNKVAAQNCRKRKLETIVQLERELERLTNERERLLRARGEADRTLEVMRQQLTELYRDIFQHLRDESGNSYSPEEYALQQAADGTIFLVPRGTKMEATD
UniProt Q6P4R8, whole entry, looked up: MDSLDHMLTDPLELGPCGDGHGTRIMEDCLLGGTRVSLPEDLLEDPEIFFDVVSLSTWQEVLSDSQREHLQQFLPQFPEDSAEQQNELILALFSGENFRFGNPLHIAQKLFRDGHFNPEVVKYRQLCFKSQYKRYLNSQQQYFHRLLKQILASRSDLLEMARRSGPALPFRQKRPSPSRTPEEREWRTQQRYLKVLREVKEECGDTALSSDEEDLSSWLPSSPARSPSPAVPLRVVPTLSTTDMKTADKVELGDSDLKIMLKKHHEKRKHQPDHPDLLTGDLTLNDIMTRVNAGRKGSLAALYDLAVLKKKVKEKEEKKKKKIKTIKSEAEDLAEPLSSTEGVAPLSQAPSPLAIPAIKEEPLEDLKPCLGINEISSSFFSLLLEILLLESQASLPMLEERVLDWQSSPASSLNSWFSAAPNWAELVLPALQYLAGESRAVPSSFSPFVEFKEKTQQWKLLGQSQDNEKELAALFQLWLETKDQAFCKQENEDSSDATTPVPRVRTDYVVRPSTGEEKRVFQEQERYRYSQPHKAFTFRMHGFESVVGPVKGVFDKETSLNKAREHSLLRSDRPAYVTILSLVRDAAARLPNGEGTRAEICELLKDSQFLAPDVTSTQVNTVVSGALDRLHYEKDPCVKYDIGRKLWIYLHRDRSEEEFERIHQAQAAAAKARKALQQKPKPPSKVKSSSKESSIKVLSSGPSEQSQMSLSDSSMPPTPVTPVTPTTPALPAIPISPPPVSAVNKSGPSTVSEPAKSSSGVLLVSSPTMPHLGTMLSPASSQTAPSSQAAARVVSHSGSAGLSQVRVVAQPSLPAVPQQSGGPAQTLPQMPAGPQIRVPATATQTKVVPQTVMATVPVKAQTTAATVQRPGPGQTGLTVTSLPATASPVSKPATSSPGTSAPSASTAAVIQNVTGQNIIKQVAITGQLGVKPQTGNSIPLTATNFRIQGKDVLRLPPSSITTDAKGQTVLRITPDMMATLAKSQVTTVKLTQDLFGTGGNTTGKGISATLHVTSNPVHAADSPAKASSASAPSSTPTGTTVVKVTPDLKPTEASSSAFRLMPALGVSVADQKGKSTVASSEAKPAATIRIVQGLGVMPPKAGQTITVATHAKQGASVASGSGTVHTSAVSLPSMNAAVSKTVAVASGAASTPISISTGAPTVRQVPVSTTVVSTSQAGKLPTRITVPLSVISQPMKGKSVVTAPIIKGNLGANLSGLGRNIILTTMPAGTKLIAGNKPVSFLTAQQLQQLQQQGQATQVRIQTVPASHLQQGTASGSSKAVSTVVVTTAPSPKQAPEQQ
UniProt O95182, whole entry, looked up: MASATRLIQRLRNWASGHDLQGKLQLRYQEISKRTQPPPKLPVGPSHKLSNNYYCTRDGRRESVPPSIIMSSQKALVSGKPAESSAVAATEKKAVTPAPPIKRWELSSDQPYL
UniProt P30414: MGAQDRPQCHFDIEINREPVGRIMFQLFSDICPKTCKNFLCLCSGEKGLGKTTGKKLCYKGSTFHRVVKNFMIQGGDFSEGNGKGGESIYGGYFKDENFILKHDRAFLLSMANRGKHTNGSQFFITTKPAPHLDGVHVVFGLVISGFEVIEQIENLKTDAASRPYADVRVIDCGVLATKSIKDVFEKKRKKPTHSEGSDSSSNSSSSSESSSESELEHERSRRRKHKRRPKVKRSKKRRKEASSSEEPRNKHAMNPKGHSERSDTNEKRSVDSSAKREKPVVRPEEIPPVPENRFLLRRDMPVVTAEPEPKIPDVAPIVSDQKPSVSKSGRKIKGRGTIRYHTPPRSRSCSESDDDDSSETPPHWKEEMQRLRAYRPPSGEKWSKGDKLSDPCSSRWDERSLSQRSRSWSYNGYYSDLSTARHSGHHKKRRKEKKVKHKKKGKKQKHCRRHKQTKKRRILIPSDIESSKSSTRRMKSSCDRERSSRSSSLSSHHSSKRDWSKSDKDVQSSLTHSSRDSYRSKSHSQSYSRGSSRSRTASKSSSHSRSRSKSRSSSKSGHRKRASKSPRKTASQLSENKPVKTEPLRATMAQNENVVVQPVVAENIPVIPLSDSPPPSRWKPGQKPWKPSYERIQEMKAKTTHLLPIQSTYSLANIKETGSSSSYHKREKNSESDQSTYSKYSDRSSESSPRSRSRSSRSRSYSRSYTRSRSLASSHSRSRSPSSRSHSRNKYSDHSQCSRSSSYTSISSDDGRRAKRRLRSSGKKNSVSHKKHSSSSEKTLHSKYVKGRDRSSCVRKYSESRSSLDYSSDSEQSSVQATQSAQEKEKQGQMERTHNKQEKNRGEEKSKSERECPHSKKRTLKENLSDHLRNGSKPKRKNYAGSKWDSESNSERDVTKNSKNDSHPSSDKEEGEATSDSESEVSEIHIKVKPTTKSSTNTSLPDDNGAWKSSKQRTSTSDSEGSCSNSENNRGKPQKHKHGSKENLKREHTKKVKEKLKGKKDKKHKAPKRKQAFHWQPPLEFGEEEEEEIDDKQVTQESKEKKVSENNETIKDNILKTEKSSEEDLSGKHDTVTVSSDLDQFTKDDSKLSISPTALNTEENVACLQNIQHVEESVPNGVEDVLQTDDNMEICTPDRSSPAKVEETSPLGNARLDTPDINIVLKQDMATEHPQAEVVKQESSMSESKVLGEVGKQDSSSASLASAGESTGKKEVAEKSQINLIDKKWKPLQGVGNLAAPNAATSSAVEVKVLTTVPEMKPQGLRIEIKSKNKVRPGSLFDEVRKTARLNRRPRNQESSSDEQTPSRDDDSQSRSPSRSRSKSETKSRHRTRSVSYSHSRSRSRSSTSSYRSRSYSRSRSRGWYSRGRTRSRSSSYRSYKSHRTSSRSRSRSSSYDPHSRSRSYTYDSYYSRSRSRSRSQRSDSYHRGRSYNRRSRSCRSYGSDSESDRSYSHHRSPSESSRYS

Compound: O=C1NC(=O)C(c2cnc3ccccn23)=C1c1cn2c3c(cc(F)cc13)CN(C(=O)N1CCCCC1)CC2
Assay: log2 fold change, soluble protein after heating vs DMSO (PISA); higher = thermal stabilisation; K562 lysate, 10 uM; active = over 0.2 and 3.5 SD of the protein, either way, in both replicates (recomputed)
Summary of the method: (§1)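 Thermal stability, expressed as log-two fold change relative to solvent controls, is given from duplicates. Crude K562 extract in PBS pH 7.4 with 1 mM MgCl2, at 1 mg/mL protein, was treated with 10 μM compound for 30 min and heated in aliquots for 3 min across 48°C-58°C. After pooling, adjustment to 0.5% NP-40 at 4°C and centrifugation at 21,000xg for 90 min, supernatant protein was measured by TMTpro 16plex LC-MS/MS with channel sums equalised.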

log2 fold change, inactive:
NEK1 isoform 3 (UniProt Q96PY6) 0.013
NDFIP2 (UniProt Q9NV92) 0.127
NEMP1 (UniProt O14524) -0.077
NGLY1 (UniProt Q96IV0) 0.018
NDUFB3 (UniProt O43676) -0.037

Compound: c1cn2cc(-c3ccc4cn[nH]c4c3)nc(Nc3ccc(N4CCOCC4)cc3)c2n1 [entospletinib]
Assay: as above
Summary of the method: as §1

log2 fold change, inactive:
NDST1 (UniProt P52848) -0.118
NFIX (UniProt Q14938) -0.037
NDUFAF6 (UniProt Q330K2) -0.067
NEU3 isoform 2 (UniProt Q9UQ49) 0.005
NDUFC1 (UniProt O43677) -0.055
NGDN (UniProt Q8NEJ9) -0.149
NEPRO (UniProt Q6NW34) -0.031
NDRG2 isoform 6 (UniProt Q9UN36) 0.075
NEK5 (UniProt Q6P3R8) 0
NDUFV3 (UniProt P56181) 0.062
NLRP1 (UniProt Q9C000) 0.438
NKIRAS1 (UniProt Q9NYS0) -0.05
NEFH (UniProt P12036) 0.011
NDUFS6 (UniProt O75380) -0.016
NFE2 (UniProt Q16621) -0.007
NFRKB isoform 2 (UniProt Q6P4R8) 0.016
NIF3L1 (UniProt Q9GZT8) 0.006
NFU1 (UniProt Q9UMS0) -0.064
NHLRC3 (UniProt Q5JS37) 0.024
NISCH (UniProt Q9Y2I1) -0.035
NDUFA7 (UniProt O95182) 0.019
NKTR (UniProt P30414) -0.065
NFATC4 isoform 2 (UniProt Q14934) 0.019
NEXN (UniProt Q0ZGT2) 0.042
NDUFS3 (UniProt O75489) 0.057
NIPSNAP3B (UniProt Q9BS92) 0.15
NIPSNAP3A (UniProt Q9UFN0) -0.021
NEK1 isoform 3 (UniProt Q96PY6) -0.065
NFIL3 (UniProt Q16649) 0.122
NGLY1 (UniProt Q96IV0) 0.034
NDUFB3 (UniProt O43676) -0.021
NLRX1 (UniProt Q86UT6) 0.089
